The other results are listed elsewhere or left out. Further columns of the screen follow, without active or inactive calls. Most of these compounds were active or inconclusive in the main read-out, so they are no random draw. Potencies come from curve fits of mixed quality, noted in brackets.
Assay: qHTS Assay to Find Inhibitors of Chronic Active B-Cell Receptor Signaling
Conditions: ABC-DLBCL IkBa-CBG/CBR reporter, luminescence ratio (green luciferase fused to IkBa over red control in TMD8 lymphoma cells), 4 h
Method in brief: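 Concentration-response series (up to 46 uM) were applied to TMD8 dual-reporter cells for 4 h at 37C with doxycycline. Green/red ratio, after filter-overlap correction, defined %Activity; red signal alone was normalised to basal cells and zero luminescence.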

[1] = measured here: CBR red luminescence, cell number
[2] = measured here: IkBa-CBG green luminescence

SMILES	AC50 [1]	AC50 [2]
NC(=O)NN=C1C2CCCC1C(c1ccccc1)NC2c1ccccc1 (configuration not stated)	11.2 µM [falling, single point]	–
c1ccc(-c2n[nH]c(-c3ccccn3)n2)cc1	14.6 µM [falling, single point]	–
CC1(C)CC(=O)C=C(NC2CCCCCCC2)C1	20.6 µM [falling, single point]	–
O=C(N/N=C/c1ccc(-n2ccnc2)cc1)c1cccs1	1.78 µM [falling, partial curve, poor fit]	–
CCOc1ccc(CNC(=O)CCSCc2ccccc2F)cc1OC	7.94 µM [rising, partial curve, poor fit]	–
O=c1c2ccccc2nc(SCc2ccc([N+](=O)[O-])cc2)n1-c1ccccc1	8.91 µM [rising, partial curve, poor fit]	–
Cc1cc(N/C=C/C(=O)c2cccs2)ccc1F	11.2 µM [falling, partial curve, poor fit]	–
COc1ccc2nc(N3CCCCC3)c(C#N)cc2c1	0.794 µM [rising, full curve, poor fit]	–
COc1ccc(C(C)=O)cc1COC(=O)CNC(=O)c1ccccc1F	29.1 µM [rising, single point]	–
COCCNC(=S)N/N=C(\C)c1ccc2cc(OC)ccc2c1	0.13 µM [falling, full curve, poor fit]	7.31 µM [falling, partial curve]
CC(=O)Nc1ccc(O)c(-c2nc3ccccc3s2)c1	10 µM [falling, partial curve, poor fit]	–
Cc1[nH]c(=O)[nH]c(=O)c1S(=O)(=O)N1c2ccc(F)cc2CCC1C (configuration not stated)	2.31 µM [rising, partial curve, poor fit]	–
CC1(C)CC(=O)c2cc(C(=O)NCc3ccco3)c(=O)n(-c3ccc(Cl)cc3)c2C1	23.1 µM [falling, partial curve, poor fit]	–
O=C1OCC(CO)(CO)N=C1NNc1ccc(Cl)c(Cl)c1	5.62 µM [rising, single point]	–
COC(=O)Nc1ccc(SCC(=O)c2cccc([N+](=O)[O-])c2)cc1	25.1 µM [rising, single point]	35.5 µM [falling, single point]
O=C(c1ccccc1)N1CCN(C2CCCCC2)CC1	14.6 µM [rising, single point]	–
COC(=O)/C(C#N)=C/c1c(Oc2cc(C)cc(C)c2)nc2ccccn2c1=O	35.5 µM [rising, single point]	–
COc1ccccc1/C=C1\C(=O)Nc2ccccc21	11.2 µM [falling, partial curve]	–
COc1cc(OC)c(-c2nn3c(-c4ccco4)nnc3s2)cc1OC	1.78 µM [rising, full curve, poor fit]	–
COc1ccccc1NC(=O)C[n+]1ccccc1	6.31 µM [falling, full curve, poor fit]	–
Cc1c(C(=O)NC2CCCCC2)oc2ccc(F)cc12	3.98 µM [falling, single point]	–

SMILES	AC50 [1]	AC50 [2]
N/C(=N\OC(=O)c1ccccc1)c1ccn[nH]1	12.6 µM [falling, partial curve, poor fit]	–
COc1ccc(C(=O)Oc2ccc(/C=N/Nc3ccc(Cl)c(C(=O)O)c3)cc2OC)cc1	12.6 µM [falling, partial curve]	–
Cc1nn(Cc2ccccc2)c(C)c1NC(=O)c1noc2c1CCc1ccccc1-2	6.51 µM [rising, single point]	–
CCCCc1ccc(NC(=S)Nc2cccnc2)cc1	20.6 µM [rising, single point]	–
O=C1OCCN/C1=C\C(=O)c1ccccc1	3.16 µM [falling, single point]	–
CSc1ccc(/C=N/NC(=O)c2ccccc2Cl)cc1	6.31 µM [falling, partial curve]	–
CC1(C)CC(=O)C2=C(C1)Nc1ncnn1C2c1cccs1 (configuration not stated)	3.98 µM [rising, partial curve, poor fit]	–
CCOC(=O)C1C(=O)NC(N2CCCCC2)=NC1c1ccco1 (configuration not stated)	6.51 µM [falling, single point]	–
Cn1nc([N+](=O)[O-])nc1Oc1ccccc1N	29.1 µM [falling, single point]	–
Cc1nc2nc(-c3ccco3)[nH]n2c(=O)c1Cc1ccccc1	6.51 µM [falling, partial curve]	–
CCOC(=O)C(=CNc1cc(OC)ccc1-n1cccc1)C(=O)OCC	35.5 µM [falling, single point]	–
COC(=O)c1c(NC(=O)c2nc3ccccc3s2)sc2c1CCN(C(C)=O)C2	0.366 µM [falling, partial curve]	–
Cc1ccc(NC(=O)Cn2cnc([N+](=O)[O-])c2)cc1C	22.4 µM [falling, single point]	–
CSc1nc(O)cc(=O)n1-c1ccc(F)cc1	12.6 µM [falling, partial curve]	–
COC(=O)COc1ccc(S(=O)(=O)N2CCOCC2)cc1C	29.1 µM [rising, single point]	–
Cc1ccccc1NCC(=O)N/N=C/c1c(C)c(C(=O)c2ccc(Cl)cc2)n2ccccc12	29.1 µM [falling, single point]	–
Cc1cc(C)nc(SC/C=C/c2ccccc2)n1	15.8 µM [rising, partial curve, poor fit]	–
O=C(/C=C/c1ccccc1)OCC(=O)c1c[nH]c2ccccc12	0.731 µM [rising, full curve, poor fit]	–
O=C1CC(N2CCCc3ccccc32)C(=O)N1c1ccccc1Cl (configuration not stated)	7.31 µM [falling, partial curve]	–
COCCCNC(=O)CSC1=Nc2ccccc2C2=NC(Cc3c[nH]c4ccccc34)C(=O)N12 (configuration not stated)	14.1 µM [falling, partial curve, poor fit]	–
CC(=O)c1ccc(NS(=O)(=O)c2ccc(-c3cnc(C4CC4)o3)cc2)cc1	20 µM [falling, single point]	–

SMILES	AC50 [1]	AC50 [2]
Cc1ccc(Cn2nnnc2CN2CCC(O)(c3ccc(F)cc3)CC2)cc1	15.8 µM [falling, partial curve, poor fit]	–
CCC1CCCCN1S(=O)(=O)c1cc(C(=O)Nc2ccc(C)c(F)c2)ccc1F (configuration not stated)	1.26 µM [falling, full curve, poor fit]	–
COc1cc(NC(=O)Cn2c(=O)n(CC3CCCO3)c(=O)c3ccccc32)cc(OC)c1 (configuration not stated)	20 µM [falling, partial curve, poor fit]	–
Cc1ccc(-n2ncc(C(=O)Nc3cc(Cl)cc(Cl)c3)c2C2CCNCC2)cc1C	1.41 µM [rising, full curve, poor fit]	22.4 µM [falling, single point]
Cc1cccc(C(=O)N[C@H](C(=O)Nc2cccc(S(=O)(=O)N3CCCC3)c2)C(C)C)c1	10 µM [falling, partial curve, poor fit]	–
O=C(CSc1nnc(-c2ccccc2)o1)Nc1ccccc1F	4.61 µM [falling, full curve]	–
COc1ccc(N(CC(=O)N2CCN(Cc3ccc4c(c3)OCO4)CC2)S(=O)(=O)c2ccc(F)cc2)cc1	0.891 µM [rising, partial curve, poor fit]	–
CC(C)COc1ccc(-c2nn(-c3ccccc3)cc2C(=O)Nc2nccs2)cc1	3.26 µM [falling, partial curve, poor fit]	–
O=C(CS(=O)(=O)c1ccc(Cl)c(Cl)c1)Nc1ccccc1Cl	1.64 µM [falling, partial curve, poor fit]	–
Cc1cc(C)nc(SCc2nnc(SCC(=O)Nc3ncc(C)s3)n2Cc2ccco2)n1	7.31 µM [falling, partial curve, poor fit]	–
COc1ccc(C(=O)COC(=O)C2CCCN2C(=O)C23CC4CC(CC(C4)C2)C3)cc1 (configuration not stated)	18.4 µM [falling, partial curve, poor fit]	–
O=C(CN1CCN(Cc2ccc(F)cc2Cl)C1=O)NCc1cccs1	0.562 µM [rising, partial curve, poor fit]	–
O=[N+]([O-])c1ccccc1OCCCN1CCOCC1	0.501 µM [rising, full curve, poor fit]	–
O=C(COc1ccc2c(c1)OCO2)Nc1nncs1	7.08 µM [falling, partial curve, poor fit]	–
CC1=CC(C)C(C(=O)O)C(C(=O)N2CCN(C)CC2)C1 (configuration not stated)	35.5 µM [rising, single point]	–
CCCNC(=O)c1ccccc1NC(=O)c1ccc2c(c1)NC(=O)C(C)S2 (configuration not stated)	14.1 µM [falling, partial curve, poor fit]	–
CC(=O)C1=C(C)OC(N)=C(C#N)C1c1cc([N+](=O)[O-])ccc1Cl (configuration not stated)	22.4 µM [falling, partial curve, poor fit]	17.8 µM [falling, single point]
O=C(CSCc1ccc(C(=O)O)cc1)Nc1ccc2ccccc2c1	14.1 µM [falling, partial curve, poor fit]	–
CSc1ccccc1OCc1cc(C(=O)N[C@H]2CCCCNC2=O)no1	6.31 µM [falling, full curve, poor fit]	–
CC1CCc2c(sc3nc(SCC(=O)O)n(-c4ccccc4)c(=O)c23)C1 (configuration not stated)	3.55 µM [rising, full curve, poor fit]	–
N#Cc1ccc(-c2ccco2)nc1SCC(=O)c1ccc(Cl)cc1	1 µM [rising, full curve, poor fit]	–

Some values from the entries so far.
Cc1ccc(-n2ncc(C(=O)Nc3cc(Cl)cc(Cl)c3)c2C2CCNCC2)cc1C | AC50 [2]: 22.4 µM [falling, single point]
CC1CCc2c(sc3nc(SCC(=O)O)n(-c4ccccc4)c(=O)c23)C1 (configuration not stated) | AC50 [1]: 3.55 µM [rising, full curve, poor fit]
O=C(CSCc1ccc(C(=O)O)cc1)Nc1ccc2ccccc2c1 | AC50 [1]: 14.1 µM [falling, partial curve, poor fit]
O=C(COc1ccc2c(c1)OCO2)Nc1nncs1 | AC50 [1]: 7.08 µM [falling, partial curve, poor fit]
CSc1ccccc1OCc1cc(C(=O)N[C@H]2CCCCNC2=O)no1 | AC50 [1]: 6.31 µM [falling, full curve, poor fit]
CCCNC(=O)c1ccccc1NC(=O)c1ccc2c(c1)NC(=O)C(C)S2 (configuration not stated) | AC50 [1]: 14.1 µM [falling, partial curve, poor fit]
